Target: T1, SmBiT-C-CaSR-AA (CASR LL1013-1014AA mutation), P41180
T1 chain: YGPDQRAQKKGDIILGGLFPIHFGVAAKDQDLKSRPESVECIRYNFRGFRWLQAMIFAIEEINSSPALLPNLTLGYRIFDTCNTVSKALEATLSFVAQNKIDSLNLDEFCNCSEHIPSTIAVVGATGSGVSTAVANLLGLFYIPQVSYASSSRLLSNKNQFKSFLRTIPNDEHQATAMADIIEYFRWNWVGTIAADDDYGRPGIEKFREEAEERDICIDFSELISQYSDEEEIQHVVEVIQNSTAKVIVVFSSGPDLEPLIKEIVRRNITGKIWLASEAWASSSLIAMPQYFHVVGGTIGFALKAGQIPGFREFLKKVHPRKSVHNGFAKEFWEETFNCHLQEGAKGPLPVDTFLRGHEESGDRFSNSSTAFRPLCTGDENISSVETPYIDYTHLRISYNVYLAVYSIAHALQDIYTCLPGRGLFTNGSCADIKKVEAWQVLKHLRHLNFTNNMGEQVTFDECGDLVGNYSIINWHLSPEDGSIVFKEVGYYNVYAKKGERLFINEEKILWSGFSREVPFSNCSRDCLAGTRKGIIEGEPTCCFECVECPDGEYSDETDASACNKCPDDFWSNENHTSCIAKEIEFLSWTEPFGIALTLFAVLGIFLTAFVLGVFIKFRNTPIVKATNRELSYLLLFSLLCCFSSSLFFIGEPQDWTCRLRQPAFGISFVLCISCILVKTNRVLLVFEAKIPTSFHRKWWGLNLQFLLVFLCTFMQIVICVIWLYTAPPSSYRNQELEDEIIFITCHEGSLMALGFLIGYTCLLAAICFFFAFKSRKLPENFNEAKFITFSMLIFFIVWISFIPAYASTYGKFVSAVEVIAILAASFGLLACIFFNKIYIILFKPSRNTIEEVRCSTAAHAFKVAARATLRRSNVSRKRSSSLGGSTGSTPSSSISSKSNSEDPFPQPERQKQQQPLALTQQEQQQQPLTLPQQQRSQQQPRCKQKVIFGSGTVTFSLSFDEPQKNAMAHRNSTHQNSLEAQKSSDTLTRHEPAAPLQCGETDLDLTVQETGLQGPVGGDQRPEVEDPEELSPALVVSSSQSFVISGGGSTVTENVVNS
Assay: NanoBiT split-luciferase
Conditions: chain shown with the change; N = 6; parent: est. 6.0; read off a plot

B1: m3; m1 AP2σ:R15H; CaSR:L1013A; CaSR:L1014A (protein)
chain: MIRFILIQNRAGKTHLAKWYMQFDDDEKQKLIEEVHAVVTVRDAKHTNFVEFRNFKIIYRRYAGLYFCICVDVNDNNLAYLEAIHNFVEVLNEYFHNVCELDLVFNFYKVYTVVDEMFLAGEIRETSQTKVLKQLLMLQSLE
- response: 3.8
